Where a name gives a salt, the structure may show the parent alone.
Test system: MES-induced tonic seizures
Test: Maximal electroshock seizure (MES) test in mice with isobolographic/CalcuSyn DDI analysis
Type: in vivo, mouse
Details: median-effect curves, drug alone; m>1 sigmoidal
Description: The study was performed in two phases. […] Secondly, (Experiment B), drug-drug interactions (DDI) and anticonvulsant activities for CBD/FEN in combination were determined.
Experiment A was performed using 160 male, C57Bl6 mice, weighing between 20.1-30.1 g, and Experiment B was performed using 126 male, C57Bl6 mice, weighing between 19.2-26.1 g, purchased from a licensed breeder (Charles River, UK).
The following drugs were used in this study: Purified botanical CBD provided by GW Research Ltd., fenfluramine hydrochloride (FEN) purchased from Sigma Merck. The control vehicle used was 1:1:18 (5% ethanol, 5% Kolliphor EL, 90% saline). […]
Electroconvulsions were produced by application of a fixed current intensity of 30 mA (0.2 sec duration) delivered via corneal electrodes. […] Mice were individually assessed for production of seizure determined by presence or absence of tonic hindlimb extension following current application. […]
For the three fixed-ratio CBD/FEN combinations (1:3, 1:1 and 3:1), calculations were based on Loewe's equation of additivity as follows; x/EE50(CBD)+y/EE50(FEN)=1; where x=the exposure of CBD and y=the exposure at which […], when co-administered with FEN, should theoretically exert the desired/additive 50% effect. […] Similarly, dose proportions were calculated for the CBD/FEN 1:3 and 3:1 ratios based on theoretical additive EE50. […]

SMILES | m value of the dose-effect curve
C=C(C)[C@@H]1CCC(C)=C[C@H]1c1c(O)cc(CCCCC)cc1O [CBD, cannabidiol] | 2.6 ± 0.5
CCNC(C)Cc1cccc(C(F)(F)F)c1 (centres unmarked) [FEN, fenfluramine hydrochloride, reference compound] | 2.6 ± 0.7

Reference: patent US11419829B2, “Use of cannabidiol in combination with 5-HT2B receptor agonists or amphetamines in the treatment of epilepsy” (GW Research Limited, priority 2017, dated 2022)
